Experimental data as given in PubChem BioAssay AID1671190 (National Center for Advancing Translational Sciences (NCATS), 2021).
“And” between values parts separate entries of the source, which are not always exact repeats. Identical values can stand only once. Among all 580,000 compounds or so, about 6,100 (1.1%) were called active. This list was built around the results that the source calls inconclusive (neither active nor inactive); the mix of calls is not that of the screen. The call rests on the fitted dose curve; in most records, active means well fitted inhibition curve with a large enough effect; inconclusive means small, poorly fitted or top-dose-only effect, or another doubt; inactive means no such curve, though single readings can be large or run the other way. Potencies beside an inconclusive call are fits to weak or partial responses and may not hold up.

Amino acid sequences for entries named in this document (tags omitted). A change or cut given only in a name is not applied to a line headed by its entry.
UniProt P18054: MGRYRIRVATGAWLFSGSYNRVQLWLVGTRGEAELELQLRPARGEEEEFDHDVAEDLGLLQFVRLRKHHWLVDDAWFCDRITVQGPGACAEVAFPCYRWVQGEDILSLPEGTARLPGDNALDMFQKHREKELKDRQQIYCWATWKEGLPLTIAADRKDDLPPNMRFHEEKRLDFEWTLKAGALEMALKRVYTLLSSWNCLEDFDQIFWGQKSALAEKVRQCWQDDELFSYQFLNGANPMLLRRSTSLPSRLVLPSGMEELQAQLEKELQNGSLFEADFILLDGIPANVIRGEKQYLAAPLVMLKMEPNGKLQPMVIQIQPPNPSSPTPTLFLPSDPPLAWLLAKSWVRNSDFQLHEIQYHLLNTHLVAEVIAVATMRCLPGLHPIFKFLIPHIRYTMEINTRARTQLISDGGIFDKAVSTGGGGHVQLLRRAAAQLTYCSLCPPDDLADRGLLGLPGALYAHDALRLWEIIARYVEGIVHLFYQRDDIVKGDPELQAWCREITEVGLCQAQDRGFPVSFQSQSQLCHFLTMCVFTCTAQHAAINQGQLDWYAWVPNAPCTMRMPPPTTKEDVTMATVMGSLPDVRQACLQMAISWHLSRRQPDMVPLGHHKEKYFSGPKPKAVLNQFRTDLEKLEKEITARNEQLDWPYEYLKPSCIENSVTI

Target: Polyunsaturated fatty acid lipoxygenase ALOX12 (Homo sapiens) (UniProt P18054)
Assay: Primary qHTS assay for inhibitors of human arachidonate 12S-lipoxygenase (ALOX12): Round 2
Settings: purified 12hLO, xylenol orange hydroperoxide absorbance; activity change, negative = inhibition: at 108 µM (top of the series) unless noted
Procedure, shortened: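 Purified human 12hLO (150 nM final) in 25 mM Hepes, 0.01% Triton X-100, pH 7.0 was preincubated 15 min at room temperature with compound. Then 40 uM arachidonic acid was added, 30 min. Hydroperoxide was read by Fe-XO absorbance ratio 573/405 nm.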
On the % scale 0 is the no-effect control and ±100 the full control effect; potency means the concentration at half of the fitted maximal effect.

Row | SMILES | Potency | activity change, negative = inhibition
1 | CC(C)(C)c1ccc(NC(=O)Nc2ccc3ccccc3n2)cc1 | inconclusive: 126 µM [inhibitor, single point] | –
2 | CCc1cc2c(cc3c(=O)n(CC(=O)NC(C)c4ccccc4)ncn32)s1 (stereo not given) | inconclusive: 112 µM [inhibitor, partial curve, poor fit] | –
3 | C#CCN(C[C@@H]1[C@@H](OC(=O)NCCCCCC)[C@@H](OC(=O)NCCCCCC)Cn2c(=O)ccc(=O)n21)S(=O)(=O)c1ccc(C)cc1 | inconclusive: 44.7 µM [inhibitor, partial curve, poor fit] | –
4 | O=C(NCc1ccccc1F)c1noc(-c2ccc3c(c2)OCO3)n1 | – | inactive: -5.65%
5 | O=C(NC(c1ccc(F)cc1)c1ccc2ccccc2n1)C1CCN(CCOc2ccc(F)cc2)CC1 (stereo not given) | inconclusive: 50.1 µM [inhibitor, partial curve, poor fit] | –
6 | Cc1cc(C)nc(-n2nc(C)c3c2N(Cc2ccccc2F)C(=O)CC3c2ccc(Cl)cc2)n1 (stereo not given) | inconclusive: 0.199 µM [inhibitor, full curve, poor fit] | –
7 | CCc1cc(=O)oc2cc(C)c(CN3CCCC(C)C3)c(O)c12 (stereo not given) | inconclusive: 1.41 µM [inhibitor, full curve] | –
8 | C/C(=N\NC(=S)NCCc1ccccc1)c1ccc(O)cc1O | inconclusive: 44.7 µM [inhibitor, partial curve, poor fit] | –
9 | O=C(O)C1Cc2ccccc2CN1S(=O)(=O)c1ccc2ccccc2c1 (stereo not given) | inconclusive: 15.8 µM [inhibitor, full curve, poor fit] | –
10 | Cc1ccc(S(=O)(=O)NCC(=O)Nc2cccnc2)cc1C | inconclusive: 56.2 µM [inhibitor, partial curve, poor fit] | –
11 | CC1CCCC(NC(=O)/C=C/c2ccc3c(c2)CCO3)C1C (stereo not given) | inconclusive: 39.8 µM [inhibitor, partial curve, poor fit] | –
12 | CS(=O)(=O)N1CCC(C(=O)Nc2ccc(Br)cc2F)CC1 | – | inactive: 2.53%
13 | CC(C)(C)c1[nH]c2ccccc2c1C=O | – | inactive: 59.4%
14 | Cc1noc(C)c1-c1cc(Nc2ccccc2)ncn1 | inconclusive: 44.7 µM [inhibitor, partial curve, poor fit] | –
15 | CCOC(=O)[C@H]1[C@H]2COc3ccc(Cl)cc3[C@H]2N2C(=O)CNC(=O)[C@@]12C | inconclusive: 112 µM [inhibitor, single point] | –
16 | CC(=O)c1cc(Cl)c(C)cc1O | inconclusive: 112 µM [inhibitor, single point] | –
17 | O=C(COC(=O)Cc1ccc(Cl)c(Cl)c1)Nc1ccc2[nH]c(=O)[nH]c2c1 | inconclusive: 112 µM [inhibitor, single point] | –
18 | CCN1CCN(C2(C(=O)N3CCC(COC)C3)Cc3ccccc3C2)CC1 (stereo not given) | – | inactive: 9.32%
19 | Cc1cc(C(=O)N[C@@H]2CN(Cc3ccccn3)C[C@H]2CN(C)C)n[nH]1 | – | inactive: 133%
20 | Cc1nc2cc(NS(=O)(=O)c3cccc4cccnc34)ccc2s1 | – | inactive: 13.6%
21 | CCCCn1c(N)c(N(CC(C)C)C(=O)C2CCN(S(=O)(=O)c3ccc(OCC)cc3)CC2)c(=O)[nH]c1=O | inconclusive: 100 µM [inhibitor, single point] | –
22 | Cn1ncc2c(N3CCN(c4ccc(F)cc4)CC3)ncnc21 | – | inactive: -3.54%

Row | SMILES | Potency | activity change, negative = inhibition
23 | O=C(c1cccnc1)N1CC(=O)N2[C@@H](CO)[C@H](c3ccc(Br)cc3)[C@@H]2C1 | inconclusive: 50.1 µM [inhibitor, partial curve, poor fit] | –
24 | CC(C)NC(=O)Nc1ccc2c(c1)C(=O)N([C@@H](C)CO)C[C@H](C)[C@H](CN(C)S(=O)(=O)c1ccccc1)OCCCC[C@H](C)O2 | inconclusive: 44.7 µM [inhibitor, partial curve, poor fit] | –
25 | O=C(NCC(c1ccco1)N1CCc2ccccc2C1)c1ccccc1Br (stereo not given) | inconclusive: 63.1 µM [inhibitor, partial curve, poor fit] | –
26 | C/C(=C\c1ccccc1)C1NC(=O)c2c(sc3c2CCCC3)N1 (stereo not given) | inconclusive: 50.1 µM [inhibitor, partial curve, poor fit] | –
27 | CCC(C)Cn1cnc2c(SCc3ccccn3)nc(N)nc21 (stereo not given) | inconclusive: 35.5 µM [inhibitor, partial curve, poor fit] | –
28 | Cc1ccc(C(=O)N2CCCC3(CC(Cc4ccccc4)=NO3)C2)cc1 (stereo not given) | inconclusive: 14.1 µM [inhibitor, full curve] | –
29 | Cc1ccc(-n2c(Cc3cccc4ccccc34)n[nH]c2=S)c(C)c1 | inconclusive: 50.1 µM [inhibitor, partial curve, poor fit] | –
30 | CC(NC(=O)c1ccco1)C(=O)N1CCC(c2c[nH]c3ccccc23)CC1 (stereo not given) | – | inactive: 7.53%
31 | Cn1c(=O)c2c(nc(Sc3ccccc3N)n2Cc2ccc(F)cc2)n(C)c1=O | inconclusive: 100 µM [inhibitor, single point] | –
32 | CCc1cc(C(=O)Nc2cc(S(=O)(=O)N(CC)CC)ccc2N2CCN(C)CC2)sc1C | inconclusive: 39.8 µM [inhibitor, partial curve, poor fit] | –
33 | Cc1noc(-c2cn(C3CCCN(C(=O)c4cccc5[nH]ccc45)C3)nn2)n1 (stereo not given) | inconclusive: 39.8 µM [inhibitor, partial curve] | –
34 | COc1ccccc1/C=C1\S/C(=N/NC(=O)c2cccc(Br)c2)NC1=O | – | inactive: 2.28%
35 | O=C(/C=C/c1ccc(Cl)cc1Cl)NCCSCc1ccccc1 | inconclusive: 28.2 µM [inhibitor, full curve, poor fit] | –
36 | CCOc1cc(CNC(=O)c2ncoc2-c2ccc(OC)cc2)ccc1OC | – | inactive: 15.4%
37 | CC(C)(C)c1ccc(C(=O)CSc2ncn[nH]2)cc1 | inconclusive: 2.51 µM [inhibitor, full curve, poor fit] | –
38 | COc1ccc(-c2ccc3c(c2)S(=O)(=O)c2cccc(C(=O)NCc4ccccc4Cl)c2C3=O)cc1OC | inconclusive: 44.7 µM [inhibitor, partial curve, poor fit] | –
39 | Cc1ccc(S(=O)(=O)Nc2nc3ccc(S(C)(=O)=O)cc3s2)cc1 | inconclusive: 39.8 µM [inhibitor, partial curve] | –
40 | CC(NS(=O)(=O)c1ccc(Cl)cc1)C(=O)NCc1ccco1 (stereo not given) | inconclusive: 44.7 µM [inhibitor, partial curve, poor fit] | –
41 | CCCn1c(N)c(C(=O)CSc2nc3ccccc3n2CCC#N)c(=O)n(C)c1=O | inconclusive: 4.47 µM [inhibitor, partial curve, poor fit] | –
42 | Cc1c(Cl)cccc1NC(=O)CCNC(=O)c1cccs1 | inconclusive: 44.7 µM [inhibitor, partial curve, poor fit] | –
43 | CC(C)c1ccc(/C=N/n2c(-c3ccccc3)n[nH]c2=S)cc1 | inconclusive: 35.5 µM [inhibitor, partial curve, poor fit] | –
44 | CCc1nc2c(c(-c3ccc(OC)cc3)n1)CCN(Cc1ccc(C(F)(F)F)cc1)CC2 | inconclusive: 56.2 µM [inhibitor, partial curve, poor fit] | –

Row | SMILES | Potency | activity change, negative = inhibition
45 | Cc1cc(C(=O)Nc2sc3c(c2C#N)CCC3)no1 | inconclusive: 0.282 µM [inhibitor, full curve, poor fit] | –
46 | O=S1(=O)CC(N2CCN(CCO)CC2)CN1Cc1cn(Cc2cccc(C(F)(F)F)c2)nn1 (stereo not given) | active: 25.1 µM | –
47 | Cc1ccc(CNC(=S)Nc2cccc(Cl)c2Cl)cc1 | – | inactive: 11.4%
48 | O=C(CCS(=O)(=O)c1ccc(Br)cc1)Nc1cc(F)ccc1F | – | inactive: -26%
49 | Cc1cc2cc(C(=O)O)ccc2o1 | inconclusive: 141 µM [inhibitor, single point] | –
50 | COc1ccc(-c2sc3ccc(OC)cc3c2-c2ccc(O)cc2)cc1 | inconclusive: 79.4 µM [inhibitor, partial curve, poor fit] | –
51 | COC(=O)C1=C(C)Nc2[nH]c(=S)[nH]c(=O)c2C1c1ccc(O)cc1 (stereo not given) | – | inactive: 0%
52 | Cc1cccc(N2CCN(C(=O)c3ccc4nccnc4c3)CC2C)c1 (stereo not given) | – | inactive: -20.4%
53 | CC(C)(C#CCN1CCCCC1)OCCOC(c1ccccc1)c1ccccc1 | inconclusive: 44.7 µM [inhibitor, partial curve, poor fit] | –
54 | CN(CCc1ccccc1)C(=O)c1cccc(NC(=O)Cc2cccc(NC(=O)C3CCCN(C(=O)c4ccccc4)C3)c2)c1 (stereo not given) | inconclusive: 28.2 µM [inhibitor, single point] | –
55 | CCN1CCN(C(c2cccs2)C(C)NS(=O)(=O)c2ccc(C)cc2)CC1 (stereo not given) | inconclusive: 112 µM [inhibitor, partial curve, poor fit] | –
56 | O=S(=O)(NCc1ccccc1Cl)c1ccc2c(c1)OCCO2 | – | inactive: 0.801%
57 | CC(C)OC(=O)c1c(-c2ccc(Cl)c(Cl)c2)csc1NC(=O)CCC(=O)O | – | inactive: -10.8%
58 | CC(=O)C1=CCC2C3CC=C4CC(O)CCC4(C)C3CCC12C (stereo not given) | – | inactive: 6.94%
59 | COc1cccc(C(=O)NCC2OCCc3ccccc32)c1 (stereo not given) | – | inactive: -17.9%
60 | COc1ccc(-c2oc3cc(OC(C)=O)cc(OC(C)=O)c3c(=O)c2OC)cc1 | – | inactive: -28%
61 | Cc1cccc(N2CCN(C(=S)NCCc3ccccc3)CC2)c1C | inconclusive: 50.1 µM [inhibitor, partial curve, poor fit] | –
62 | O=C(NCCc1ccccc1)c1ccc2c(c1)N(Cc1ccc(Cl)cc1)C(=O)CS2 | – | inactive: -24%
63 | CCn1nc(C)cc1C(=O)N1CCc2c([nH]c3ccccc23)C1c1cc(F)ccc1F (stereo not given) | – | inactive: 2.27%
64 | CC(=NNC(=S)N1CCC1)c1ccccn1 | active: 13.7 µM and active: 50.1 µM | –
65 | CCc1ccc(-n2nc(-c3nc4ccccc4s3)c(N)c2C(=O)OC)cc1 | inconclusive: 4.47 µM [inhibitor, full curve] | –
